Assay results: PubChem BioAssay AID1047 (SRMLSC, 2008)
The whole screen tested about 1,500 compounds, of which about 1,400 (93%) were called active. How the calls were made is not given here. So high a share suggests a set chosen from earlier hits. The entries are a selection whose mix differs from that of the whole data set. Results with a measured potency or affinity are listed apart.

Experiment: growth suppression of PTEN-null colon cells, dose response, cell-based, HCT116 PTEN knockout (AID 1047)
Conditions: CellTiter-Glo, 60 h; at 30 µM (top of the series)

Compound	viability
CC(C)N1C(=O)/C(=C/C=C/c2ccco2)C(=O)N(Cc2ccco2)C1=O	inactive: 77.2%
